# Measurements reported in PubChem BioAssay AID2685 (National Center for Advancing Translational Sciences (NCATS), 2010).
# This is one part of the list. These are further read-outs of the screen, such as a control signal, another cell line or another target. No call is given for them. Most of these compounds were active or inconclusive in the main read-out, so they are no random draw. Potencies come from curve fits of mixed quality, noted in brackets.
# Assay: qHTS Assay for Lipid Storage Modulators in Drosophila S3 Cells;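 for cell number change: cells counted by Cell Tracker Red CMTPX staining in the red channel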
# Conditions: BODIPY lipid droplet fluorescence, 18-24 h; for cell number change: measured here: cell count max response, cells fed with added oleic acid
# Description: NIH Molecular Libraries Probe Production Centers Network [MLPCN] NIH Chemical Genomics Center [NCGC] MLPCN Grant: 1 R03 MH085686-01 Assay Submitter (PI): Beller, Mathias; Max-Planck-Institut fur Biophysikalische Chemie NCGC Assay Overview: Storing lipids as a reservoir for energy or the anabolism of elementary metabolites is a common feature of probably all cells and is conserved from bacteria to humans. The universal cellular lipid storage organelle is the so-called lipid storage droplet (LD). Although ubiquitous, LDs share a simple structure composed of a hydrophobic core that harbors the storage lipids, which is shielded by a droplet-specific phospholipid monolayer to which proteins are attached. The current model of LD biogenesis involves an incorporation of the lipid core into the membrane leaflets of the endoplasmic reticulum (ER) followed by a subsequent budding-like maturation of a LD, which ultimately pinches off. Once released, LD volume can increase by localized lipogenesis or fusion of existing droplet. Storage lipids are re-mobilized enzymatically by lipase activity. Lipase regulation in the adipocyte is heavily studied and involves multiple components including catecholamine signaling, the LD-associated proteins Perilipin and comparative gene identification (CGI-58) and at least two lipases named hormone sensitive lipase (HSL) and adipocyte triglyceride lipase (ATGL). LD regulation outside of the adipocyte is poorly understood and only few components are known. However, there is an urgent need to learn more about ectopic fat depots as mislocalized storage of lipids, for example in the liver or muscle, is an eminent health problem associated with insulin resistance or the metabolic syndrome. We developed a laser-scanning cytometer assay to enable 1,536-well screening and combined the results of the small molecules screen with an RNAi database based on lipid storage.
# Triacsin C (Sigma-Aldrich T-4540), an inhibitor of long-chain fatty acyl CoA synthetase that blocks synthesis of triglycerides, was used as a positive control for lipid under-storage. A total of 23 nL of compound solution of different concentrations were transferred to the assay plates using a Kalypsys pin tool equipped with a 1,536-pin array containing 10-nL slotted pins (FP1S10, 0.457-mm diameter, 50.8 mm long; V&P Scientific). One microliter of oleic acid (400 uM) was added, and the plate was lidded with stainless steel rubber gasket lined lids containing pinholes. […] Fluorescence was detected by excitation of the fluorophores with a 488-nm laser on an Acumen Explorer (TTP Lab Tech). The total intensity in channel 2 (500-530 nm) reflected lipid droplet accumulation. Cells were detected using channel 3 (575-640 nm) with 5-um width and 100-um depth filters. The ratio of the number of objects in PMT channel 2 over the number of objects in PMT channel 3 was also calculated. Percent activity was computed relative to an internal control (100% inhibited lipid droplet deposition due to the presence of 20 uM Triacsin C), which was added to 32 wells/plate.
# [1] = measured here: lipid fluorescence (Fed channel) AC50, cells fed with added oleic acid
# [2] = measured here: cell number channel AC50, cells fed with added oleic acid
SMILES,cell number change [%],AC50 [1],AC50 [2]
CCCCn1c(N)c(N(CCOC)C(=O)c2ccc(OCc3c(C)noc3C)cc2)c(=O)[nH]c1=O,-17.1,"32.6 µM [falling, single point]",–
O=C(CCCCCN1C(=O)CCC1=O)Nc1ccc(Cl)c(C(F)(F)F)c1,11.5,–,"0.92 µM [rising, full curve, poor fit]"
Cn1nnc(NC(=S)NC(=O)c2cccs2)n1,-12.2,"6.51 µM [falling, single point]",–
COc1cc(/C=N/N2C(=O)c3ccccc3C2=O)ccc1O,-19.6,–,"1.46 µM [falling, full curve, poor fit]"
COc1ccc(Cl)cc1S(=O)(=O)NCc1nc2nc(C)cc(C)n2n1,9.51,"10.3 µM [falling, single point]",–
Cc1cc(NC(=O)C2CCCCC2C(=O)O)ccc1NC(=O)c1ccccc1 (centres undefined),24.9,"29.1 µM [rising, single point]",–
CCN=C1S/C(=C\c2ccc(OCC)c(OC)c2)C(=O)N1CC,-22.2,"16.4 µM [falling, single point]",–
O=C(NCc1n[nH]c(=S)n1Cc1ccccc1)c1ccc(Cl)cc1Cl,-10.7,–,–
COc1cc(/C=N/Nc2ccccc2[N+](=O)[O-])cc(OC)c1O,-7.88,"6.51 µM [falling, single point]",–
O=C(CNC(=O)N1CC(=O)Nc2ccccc21)NCc1ccccc1,-1.7,"29.1 µM [rising, single point]",–
COc1ccc(N2CCN(c3cc(C)nc4ccc(OC)cc34)CC2)cc1,13.5,"6.51 µM [rising, single point]",–
COc1ccccc1NC(=O)c1ccc(C(=O)Nc2ccccc2OC)nc1,-8.81,–,–
Cc1ccc(NC(=O)CC(O)(C(F)(F)F)C(F)(F)F)cc1,-56.6,"1.46 µM [falling, partial curve]","25.9 µM [falling, single point]"
COC(=O)Cc1c(C)nc2nc(NCc3c(F)cccc3Cl)[nH]n2c1=O,-2.74,"29.1 µM [rising, single point]",–
CSc1cccc(NC(=O)C(C)Sc2ccc(C)cc2)c1 (centres undefined),6.96,"16.4 µM [falling, partial curve]",–
CCCCNC(=S)N/N=C/c1ccc(C)s1,-45.6,"0.146 µM [falling, full curve, poor fit]","18.4 µM [falling, single point]"
Cc1cccc(C(=O)NCC(=O)Nc2ccc(S(=O)(=O)Nc3nc(C)cc(C)n3)cc2)c1,-13.3,–,–
CC(=O)N1CCN2C(=O)C1CCCC(=O)c1cc(C(C)C)ccc12 (centres undefined),52.6,"23.1 µM [rising, partial curve]","14.6 µM [rising, partial curve]"
Cc1ccc(C(NC(=O)N2CCCCC2)=C(Cl)Cl)cc1F,-30.1,"0.00517 µM [falling, full curve, poor fit]","4.11 µM [falling, partial curve]"
Cc1cccc(OCC(=O)N(C)CC(=O)Nc2cccc(F)c2)c1C,1.83,"0.13 µM [rising, full curve, poor fit]",–

# Ordered by number of heavy atoms (high to low): 3 of the compounds above
SMILES,cell number change [%],AC50 [1],AC50 [2]
CCCCn1c(N)c(N(CCOC)C(=O)c2ccc(OCc3c(C)noc3C)cc2)c(=O)[nH]c1=O,-17.1,"32.6 µM [falling, single point]",–
Cc1cccc(OCC(=O)N(C)CC(=O)Nc2cccc(F)c2)c1C,1.83,"0.13 µM [rising, full curve, poor fit]",–
Cc1ccc(NC(=O)CC(O)(C(F)(F)F)C(F)(F)F)cc1,-56.6,"1.46 µM [falling, partial curve]","25.9 µM [falling, single point]"

# (next part)

SMILES,cell number change [%],AC50 [1],AC50 [2]
CC(=O)Oc1ccccc1C(=O)NC(C)CCc1ccccc1 (centres undefined),1.57,"3.66 µM [falling, full curve, poor fit]",–
COc1ccccc1N(CC(=O)N(CC(C)C)CC(C)C)S(=O)(=O)c1cccs1,-22.2,–,–
COc1cc(-c2noc(C)c2-c2ccc(N(C)C)nc2)cc(OC)c1OC,7.12,–,–
CCOC(=O)c1cnc(SC)nc1N,5.18,"20.6 µM [falling, partial curve]",–
NC(=O)C1CCN(c2cc(Cl)ccc2[N+](=O)[O-])CC1,6.83,–,–
Cc1ccsc1C(=O)OCC(=O)NCc1ccc2c(c1)OCO2,–,"0.58 µM [rising, single point]","0.58 µM [rising, single point]"
COc1cc(C)c(CN2CCC(Oc3ccc(C(=O)N4CCCC4)cc3)CC2)cc1C,-25.7,–,"0.103 µM [rising, full curve, poor fit]"
Cc1nc(SCC(=O)N2CCN(c3ccccc3)CC2)c2oc3ccccc3c2n1,32.9,"0.651 µM [rising, full curve]","0.231 µM [rising, full curve, poor fit]"
O=C(O)/C=C/c1cccc(NS(=O)(=O)c2ccccc2)c1,4.21,"0.58 µM [falling, single point]","1.64 µM [falling, partial curve]"
O=C(Nc1ccc(N2CCOCC2)cc1)c1ccc(Cl)c(S(=O)(=O)N2CCCC2)c1,-34.4,"6.51 µM [falling, single point]","20.6 µM [falling, partial curve]"
CCCc1c(C)nc(N2CCN(c3ccc(F)cc3)CC2)[nH]c1=O,17.9,–,–
Cc1cc(C)cc(-n2ccnc2SCC(=O)c2c(N)n(C3CC3)c(=O)[nH]c2=O)c1,-30.3,"25.9 µM [falling, partial curve, poor fit]","29.1 µM [falling, single point]"
CCSc1nnc(NC(=O)c2ccc(C)cc2)s1,41.3,"1.46 µM [falling, full curve]","29.1 µM [rising, single point]"
CCOc1ccc(N2C(=O)CC(NCCc3ccncc3)C2=O)cc1 (centres undefined),-3.96,"11.6 µM [falling, single point]",–
O=C(NC(=S)Nc1ccccc1Cl)c1ccco1,-5.46,–,–
O=C(COc1ccc(Cl)cc1)Nc1ccc2[nH]ncc2c1,18.9,–,–
CN(C(=S)NCCN1CCOCC1)C(c1ccccc1)c1ccccc1,3.28,–,–
O=c1[nH]c(-c2ccccn2)nc(C(F)(F)F)c1Br,-21.8,"0.82 µM [falling, full curve]",–
O=C1Nc2c(ccc(Cl)c2Cl)C(=O)C1(F)c1ccccc1 (centres undefined),-30.6,–,"20.6 µM [falling, partial curve]"
Cc1c(C(=O)N/N=C/c2cccc(O)c2)nnn1-c1nonc1N,-18.5,"2.31 µM [falling, partial curve]",–
